Results from PubChem BioAssay AID504467 (National Center for Advancing Translational Sciences (NCATS), 2011).
The campaign covered roughly 330,000 compounds. About 7,700 (2.3%) were called active. Inconclusive means that the source gave no clear call. Such entries were picked first, then a sample of the others. Calls come from the whole dose curve; as a rule, active = well fitted inhibition curve with a large enough effect; inconclusive = small, poorly fitted or top-dose-only effect, or effect the other way; inactive = flat fitted curve, though single readings scatter. Where the call is inconclusive, the potency comes from a doubtful curve fit.

Assay: qHTS screen for small molecules that inhibit ELG1-dependent DNA repair in human embryonic kidney (HEK293T) cells expressing luciferase-tagged ELG1; note: nearly all actives have a fitted effect of over 55% in size
Settings: HEK293T ELG1-luciferase reporter, luminescence, 16 h, DNA damage induced by 5-fluorouridine; series mostly up to 46.1 µM
In short: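 Quantitative HTS, concentration-response format. 2,000 cells/well co-treated with 5-fluorouridine and compound, 16 hr in 5% CO2 at 37 °C; ONE-Glo luminescence read after 30 min.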
Potency is the fitted concentration of half-maximal effect.

| Compound | Potency |
| --- | --- |
| COc1ccc(C(=O)NCC(=O)OCC(=O)Nc2sccc2C#N)cc1OC | inconclusive: 23.1 µM [activator, partial curve] |
| CCC(=O)Nc1ccc(N2CCN(S(C)(=O)=O)CC2)cc1 | inactive |
| COc1ccc(CCN2C(=O)CSC2=Nc2ccc(C)cc2C)cc1OC | inconclusive: 18.3 µM [inhibitor, single point] |
| COC(=O)C1(C)NC(c2ccc(OC)cc2)C2C(=O)N(c3ccccc3)C(=O)C21 (configuration not stated) | inactive |
| O=C(CS(=O)(=O)Cc1ccccc1)Nc1nnc(C2CCCCC2)s1 | inactive |
| COc1cc2ncnc(NCc3ccc4c(c3)OCO4)c2cc1OC | inconclusive: 23.1 µM [inhibitor, partial curve, poor fit] |
| CCC(C)[C@H](NC(=O)Nc1ccc2c(c1)OCCO2)C(=O)O (some centres not stated) | inconclusive: 32.6 µM [activator, partial curve, poor fit] |
| CCOC(=O)CC1Sc2ccccc2NC1=S (configuration not stated) | inactive |
| COC(=O)c1ccc(OS(=O)(=O)N(C)C)cc1 | inconclusive: 14.6 µM [activator, partial curve] |
| Cc1cc(Cn2nc(C(=O)NCC3CC3)cc2-c2ccccc2)on1 | inconclusive: 3.16 µM [inhibitor, single point] |
| O=C(NCCc1cccc(Cl)c1)c1ccc(OC2CCN(Cc3ccccn3)CC2)cc1 | inconclusive: 0.73 µM [activator, full curve] |
| Cc1ccccc1Nc1nc(=O)c2cc([N+](=O)[O-])ccc2s1 | inconclusive: 29.1 µM [inhibitor, single point] |
| CCC(C)(C)c1ccc(Oc2ccc(N)cc2)cc1 | inactive |
| Cc1c(C(=O)N2CCC[C@H]2CO)oc2c(F)cccc12 | inconclusive: 16.4 µM [activator, partial curve] |
| Cc1ccc(O)c(-c2cc(-c3cccc(F)c3)n[nH]2)c1 | inconclusive: 4.11 µM [activator, full curve, poor fit] |
| COc1ccc(N2CCN(CC(=O)Nc3ccccc3C(=O)NCc3ccccc3)CC2)cc1 | active: 7.08 µM |
| CCN(c1ccc(OC)cc1)S(=O)(=O)c1ccc2c(c1)CCN2C(=O)CCC(=O)O | inactive |
| O=C1c2ccccc2C(=O)N1CCCn1nnc(-c2ccc(N3CCOCC3)cc2)n1 | inconclusive: 29.1 µM [inhibitor, single point] |
| CCCNC(=O)C(Cc1ccccc1)NC(=O)Cc1ccccc1 (configuration not stated) | inactive |
| CC(C)[C@H](NC(=O)[C@@H]1Cc2ccccc2CN1)C(=O)Nc1ccc2c(c1)OCCO2 | inconclusive: 29.1 µM [activator, single point] |
| CCCCOc1ccc(CSc2nnc(C)n2N)cc1[N+](=O)[O-] | inconclusive: 18.3 µM [activator, single point] |
| O/N=C/c1ccccc1OCc1ccccc1Cl | inconclusive: 29.1 µM [activator, single point] |
| CCN(C(=O)CN1CCN(C)CC1)c1cccc2ccccc12 | inactive |
| COc1ccc(CCN(C)CC(O)c2ccccc2)cc1OC (configuration not stated) | inactive |

Looked up by structure from the entries so far, three records:

| Compound | Potency |
| --- | --- |
| Cc1c(C(=O)N2CCC[C@H]2CO)oc2c(F)cccc12 | inconclusive: 16.4 µM [activator, partial curve] |
| COc1ccc(N2CCN(CC(=O)Nc3ccccc3C(=O)NCc3ccccc3)CC2)cc1 | active: 7.08 µM |
| Cc1cc(Cn2nc(C(=O)NCC3CC3)cc2-c2ccccc2)on1 | inconclusive: 3.16 µM [inhibitor, single point] |

Following part.

| Compound | Potency |
| --- | --- |
| COc1ccccc1CCNC(=O)CCn1nc(C)c2c(C)n(-c3ccccc3)nc2c1=O | inactive |
| Cc1ccc(-c2csc(-c3ccncc3)n2)cc1 | inconclusive: 23.1 µM [activator, partial curve] |
| CCn1c(CNc2ccc(Cl)cc2)nnc1SCc1ccc(Cl)cc1 | inconclusive: 23.1 µM [inhibitor, partial curve] |
| CCOC(=O)Nc1ccc(NC(=O)c2ccccc2F)cc1 | inconclusive: 14.6 µM [activator, partial curve] |
| CC(=O)c1ccc(NC(=O)C(C)OC(=O)COc2ccc(C#N)cc2)cc1 (configuration not stated) | inconclusive: 18.4 µM [activator, single point] |
| Cc1cc(Br)ccc1NC(=O)c1cnc(N2CCN(c3ccccn3)CC2)c2ccccc12 | active: 11.6 µM |
| CC(C)Cn1[nH]c2c3c(ccc2c1=O)C(=O)c1ccccc1C3=O | inconclusive: 1.03 µM [inhibitor, partial curve, poor fit] |
| CCCCCCn1c(SCCCC)nc2c1c(=O)[nH]c(=O)n2C | inactive |
| Cc1ccc(S(=O)(=O)NCc2c(Cl)cccc2Oc2ccccc2)cc1 | inconclusive: 20.6 µM [inhibitor, partial curve, poor fit] |
| COc1ccc(-n2cnnc2SCC(=O)c2cc(C)n(Cc3cccs3)c2C)cc1 | inactive |
| O=c1c2c3n(c(=S)nc2[nH]n1-c1ccccc1)CCCCC3 | inconclusive: 0.58 µM [inhibitor, partial curve] |
| Oc1c(Br)cc2oc3c(c2c1CNCc1ccccc1)CCCC3 | inactive |
| O=C(c1ccc(F)cc1)n1c(=S)nc2ccccn21 | inconclusive: 1.64 µM [activator, full curve] |
| CN1CCN(S(=O)(=O)c2ccc(SCCOc3ccc(Cl)cc3)nc2)CC1 | inactive |
| CN(C)S(=O)(=O)c1cccc(-c2csc(N/N=C/c3ccco3)n2)c1 | inconclusive: 20.6 µM [inhibitor, single point] |
| CCn1c(C)c(C(C)=O)c(N2CCN(c3ccccc3)CC2)nc1=S | inactive |
| COc1cc(-c2noc(C)n2)cc(OC)c1OC | inconclusive: 11.6 µM [activator, single point] |
| Cc1cc(C)n2cc(CSc3nc4ccccc4s3)nc2n1 | inconclusive: 10.3 µM [activator, partial curve] |
| O=C(C[C@H]1C[C@H](C(=O)N2CCOCC2)[C@@]2(CCC3CCCC3)c3[nH]c4ccc(Cl)cc4c3CCN2C1=O)NCc1ccco1 | inconclusive: 18.3 µM [inhibitor, single point] |
| Cc1ccc2cc(CN(CCCO)S(=O)(=O)c3cccc4nsnc34)c(=O)[nH]c2c1 | active: 9.2 µM |
| COCc1cc(C)nc(Oc2ccccc2)c1C#N | inconclusive: 14.6 µM [activator, partial curve, poor fit] |
| O=C(CCNS(=O)(=O)c1ccccc1)Nc1ccccc1 | inactive |
| CC(Oc1ccc(Cl)cc1)C(=O)NCCN1C(=O)S/C(=C\c2cccnc2)C1=O (configuration not stated) | inconclusive: 20.6 µM [inhibitor, single point] |
